# Laboratory results: PubChem BioAssay AID686938 (Drosophila RNAi Screening Center, 2013)
# Purpose: 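Looking for CRAC channel components and the factors controlling them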 (primary screen)
# Cell system: Drosophila S2R+ cells
# Reagent: long dsRNA against Drosophila genes, about 0.25 µg dsRNA per well, roughly 10,000 cells
# Duration: 5 days of knock-down before the calcium assay
# Challenge: thapsigargin (SERCA pump blocker) to empty calcium stores; entry signal taken 4 min after adding it
# Measurement: 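Duplicate raw fluo-4 intensities per well from a plate reader, at rest and four minutes after thapsigargin emptied calcium stores; entry-to-rest ratio filled for only some wells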
# Reading the numbers: calcium entry signal: higher = stronger calcium signal after store depletion; entry to resting ratio: higher = more calcium entry relative to resting level; resting calcium signal: higher = higher resting calcium signal
# Hit rule: 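Hit if the duplicate-averaged plate z-score for entry over resting signal is under −3; wells with weak total dye signal (Fmax z < −2) or more than 5 off-targets removed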
# Meaning of the calls: active = strongly reduced calcium entry; inactive = no strong reduction
# In all, the deposit lists about 23,000 reagents; below is a random part of those with a known target gene and a result. In the full data, 75 (0.33%) are marked active. 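Raw plate signals without normalisation; calls rest on plate z-scores that were not deposited; ratio present for only 364 wells.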 Names joined by + are all predicted targets of the reagent. No sequences are given here. Not given: the dose of the treatment.
target gene,dsRNA,"calcium entry signal, replicate 1 (fluorescence units)","calcium entry signal, replicate 2 (fluorescence units)",entry to resting ratio,"resting calcium signal, replicate 1 (fluorescence units)","resting calcium signal, replicate 2 (fluorescence units)",Outcome
Spt7,DRSC19997,5.16e7,4.42e7,,2.09e7,1.93e7,inactive
Hsp70Bc,DRSC16053,3.59e7,3.79e7,,1.80e7,1.95e7,inactive
HHEX,DRSC16186,3.57e7,4.29e7,,5.09e7,1.72e7,inactive
fit,DRSC15280,3.26e7,4.36e7,,5.88e7,1.78e7,inactive
CG14710,DRSC14933,3.22e7,3.54e7,,1.48e7,1.59e7,inactive
Fas1,DRSC16669,2.51e7,4.64e7,,1.23e7,5.86e7,inactive
CG32462 + asRNA:CR43426,DRSC11851,2.64e7,3.95e7,,1.30e7,2.65e7,inactive
CG5382,DRSC15786,4.19e7,3.29e7,,2.06e7,1.53e7,inactive
Prp6,DRSC10724,3.77e7,5.16e7,,1.75e7,2.38e7,inactive
Prp6,DRSC21773,3.68e7,3.66e7,,2.36e7,1.72e7,inactive
CG31559,DRSC12172,5.39e7,3.70e7,,2.48e7,1.58e7,inactive
CG31559,DRSC12270,4.91e7,3.80e7,,2.32e7,1.78e7,inactive
CG42342,DRSC13165,3.37e7,2.55e7,,1.85e7,1.28e7,inactive
CG42342,DRSC14378,4.84e7,1.92e7,,2.41e7,1.14e7,inactive
CG42342,DRSC15010,2.33e7,3.50e6,,1.21e7,5.71e7,inactive
CG42342,DRSC15011,2.38e7,3.80e7,,1.23e7,4.36e7,inactive
CG42342,DRSC15012,2.13e7,2.99e7,,1.10e7,4.99e7,inactive
CG42342,DRSC21791,4.73e7,3.75e7,,2.57e7,1.78e7,inactive
CG42342,DRSC22861,1.63e7,3.06e7,,9.07e6,1.46e7,inactive
CG42342,DRSC23112,5.98e7,3.36e7,,2.55e7,1.45e7,inactive
Rh4,DRSC11268,3.11e7,2.64e7,,1.56e7,1.38e7,inactive
CtsL4,DRSC02849,3.50e7,5.03e7,,1.76e7,2.06e7,inactive
Sox102F,DRSC17204,3.72e7,4.29e7,,1.77e7,1.88e7,inactive
Tap42,DRSC02967,3.32e7,2.27e7,,1.67e7,1.21e7,inactive
Jwa,DRSC02048,4.74e7,,,2.26e7,,inactive
CG6429,DRSC06986,2.03e7,3.46e7,,1.20e7,1.68e7,inactive
CG13615,DRSC14618,2.99e7,4.94e7,,1.84e7,1.95e7,inactive
Appl,DRSC17728,4.35e7,4.80e7,,1.87e7,2.20e7,inactive
CG31093,DRSC15689,4.28e7,5.50e7,,2.00e7,2.46e7,inactive
RpLP2,DRSC07539,2.04e7,1.55e7,,1.45e7,1.05e7,inactive
CG5191,DRSC15733,3.87e7,3.61e7,,1.82e7,1.71e7,inactive
CG5191,DRSC15734,4.12e7,5.48e7,,6.51e7,2.48e7,inactive
CG5191,DRSC21559,4.09e7,3.40e7,,2.51e7,1.61e7,inactive
CG14331,DRSC14810,3.67e7,5.00e7,,1.71e7,6.70e7,inactive
Gba1b,DRSC21531,3.89e7,3.48e7,,2.36e7,1.69e7,inactive
CG33689,DRSC09424,3.29e7,3.39e7,,1.69e7,1.78e7,inactive
Bruce,DRSC16015,3.51e7,3.41e7,,1.45e7,1.70e7,inactive
Aldh7A1,DRSC11083,4.21e7,4.99e7,,1.96e7,3.24e7,inactive
Trmt112,DRSC11685,3.17e7,5.04e7,,1.42e7,1.97e7,inactive
CG14492,DRSC06463,3.77e7,3.72e7,,1.65e7,1.83e7,inactive
Pax,DRSC01703,2.84e7,4.52e7,,1.63e7,2.22e7,inactive
Pax,DRSC02651,4.43e7,,,2.06e7,,inactive
Pax,DRSC02652,5.33e7,5.29e7,,2.57e7,2.24e7,inactive
CG14280,DRSC14761,3.85e7,4.11e7,,4.74e7,1.91e7,inactive
RpS20,DRSC16836,9.41e6,1.53e7,,7.08e6,8.98e6,inactive
CG4372,DRSC04466,4.10e7,5.94e7,,2.05e7,2.52e7,inactive
PolE2,DRSC09737,3.93e7,2.31e7,,2.61e7,1.07e7,inactive
CG8545,DRSC07210,2.34e7,3.23e7,,1.26e7,1.64e7,inactive
IP3K1,DRSC02734,5.62e7,,,2.48e7,,inactive
per,DRSC18818,3.35e7,5.00e7,2,1.63e7,2.02e7,inactive
kin17,DRSC11890,2.03e7,3.11e7,,9.61e6,1.48e7,inactive
Nepl13,DRSC15632,4.01e7,5.48e7,,1.86e7,2.26e7,inactive
CG3984,DRSC15530,3.86e7,6.44e7,,1.81e7,6.58e7,inactive
CG31288,DRSC14667,3.14e7,4.87e7,,1.75e7,1.87e7,inactive
Pal1 + Pdrg1,DRSC06587,2.29e7,2.32e7,,1.09e7,1.05e7,inactive
Dlip3,DRSC07401,5.41e7,6.15e7,,2.10e7,2.77e7,inactive
CG7222,DRSC07019,4.79e7,4.03e7,,1.94e7,1.92e7,inactive
CG13995,DRSC00907,2.97e7,4.64e7,,1.55e7,2.26e7,inactive
CG13995,DRSC02327,4.05e7,3.63e7,,1.98e7,1.87e7,inactive
CG13995,DRSC22767,4.26e7,3.56e7,,2.05e7,1.63e7,inactive

A stretch taken from the entries so far, for reference:
target gene,dsRNA,"calcium entry signal, replicate 1 (fluorescence units)","calcium entry signal, replicate 2 (fluorescence units)",entry to resting ratio,"resting calcium signal, replicate 1 (fluorescence units)","resting calcium signal, replicate 2 (fluorescence units)",Outcome
Tap42,DRSC02967,3.32e7,2.27e7,,1.67e7,1.21e7,inactive
Jwa,DRSC02048,4.74e7,,,2.26e7,,inactive
CG6429,DRSC06986,2.03e7,3.46e7,,1.20e7,1.68e7,inactive
